Laboratory results from publication PMC11898301.
Results are given in words; binding and its absence hold for the method and conditions named. For part of these data: Binding seen in cells or lysates may run through a third protein. Some results given as binding are weak or reduced against the parent protein; the word gives no strength. For part of these data: Where a sequence is shown, tags or fusion partners need not be part of it. One block for each molecule: values may come before it.

Protein sequences, listed by entry. Tags and fused reporters are not part of them.
UniProt P49841: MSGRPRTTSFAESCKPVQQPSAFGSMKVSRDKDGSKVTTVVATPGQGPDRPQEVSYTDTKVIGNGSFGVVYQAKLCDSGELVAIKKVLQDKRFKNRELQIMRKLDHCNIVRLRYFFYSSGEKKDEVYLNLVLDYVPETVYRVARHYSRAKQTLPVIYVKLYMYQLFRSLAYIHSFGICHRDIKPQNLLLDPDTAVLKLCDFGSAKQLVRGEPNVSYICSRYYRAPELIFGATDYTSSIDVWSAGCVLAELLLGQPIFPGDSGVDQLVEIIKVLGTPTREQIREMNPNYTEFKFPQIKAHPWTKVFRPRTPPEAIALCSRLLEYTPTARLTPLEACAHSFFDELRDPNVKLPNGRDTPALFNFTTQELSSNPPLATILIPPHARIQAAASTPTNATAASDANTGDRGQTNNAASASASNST
UniProt Q969H0: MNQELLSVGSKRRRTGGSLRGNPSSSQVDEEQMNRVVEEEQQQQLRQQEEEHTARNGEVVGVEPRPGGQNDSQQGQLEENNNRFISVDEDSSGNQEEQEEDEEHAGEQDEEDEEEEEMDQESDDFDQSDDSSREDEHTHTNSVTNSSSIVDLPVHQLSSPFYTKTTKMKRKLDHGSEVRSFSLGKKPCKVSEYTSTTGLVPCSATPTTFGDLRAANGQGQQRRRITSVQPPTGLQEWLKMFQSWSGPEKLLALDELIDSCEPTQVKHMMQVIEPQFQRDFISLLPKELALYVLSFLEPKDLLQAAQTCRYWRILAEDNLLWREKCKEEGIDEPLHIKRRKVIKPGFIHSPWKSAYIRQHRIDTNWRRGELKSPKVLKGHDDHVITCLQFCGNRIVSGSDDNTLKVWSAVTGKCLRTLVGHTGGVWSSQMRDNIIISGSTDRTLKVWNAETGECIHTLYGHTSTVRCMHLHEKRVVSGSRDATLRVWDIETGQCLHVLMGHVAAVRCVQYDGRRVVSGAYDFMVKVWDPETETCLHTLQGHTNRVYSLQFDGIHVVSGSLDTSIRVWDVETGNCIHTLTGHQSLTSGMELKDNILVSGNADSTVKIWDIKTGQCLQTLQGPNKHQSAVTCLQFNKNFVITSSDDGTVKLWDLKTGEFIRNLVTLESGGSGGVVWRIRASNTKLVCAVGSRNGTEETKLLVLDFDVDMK

Legend:
[1] = molecular target: T1, recombinant GST-PRR11 (human) (UniProt Q96HE9); experiment: pull-down; GST-PRR11 incubated with His-FBXW7 or His-GSK3β for 3 h at 4°C, then glutathione-Sepharose beads for 2 h at 4°C; eluted with 1× SDS buffer, Western blot; both purified
T1 sequence: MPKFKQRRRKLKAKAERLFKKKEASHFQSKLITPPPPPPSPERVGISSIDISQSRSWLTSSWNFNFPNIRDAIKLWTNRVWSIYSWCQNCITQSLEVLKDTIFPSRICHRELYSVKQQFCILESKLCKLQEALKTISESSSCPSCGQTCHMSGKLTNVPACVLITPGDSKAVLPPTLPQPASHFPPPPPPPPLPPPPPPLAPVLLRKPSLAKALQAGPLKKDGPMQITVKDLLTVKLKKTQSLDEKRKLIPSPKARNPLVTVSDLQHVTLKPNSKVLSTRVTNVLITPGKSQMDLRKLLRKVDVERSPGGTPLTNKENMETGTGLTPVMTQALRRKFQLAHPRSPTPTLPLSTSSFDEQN

[2] = molecular target: T2, HA-PRR11-WT (proline-rich 11) (human) (UniProt Q96HE9); experiment: co-IP; 293T cells transfected with HA-PRR11 (WT, fragments or mutants) and Flag-GSK3β or Flag-FBXW7 (WT or mutants); MG132 10 μM for 6 h before collection; IP with HA or Flag antibody, Protein A/G magnetic beads, Western blot; in some panels λ-PPase added to extracts, CHIR-99021, siGSK3β or GSK3β overexpression
T2 sequence: T1 sequence

[3] = molecular target: T3, HA-PRR11 (amino acids 251-360) (human) (UniProt Q96HE9); experiment: as above
T3 sequence: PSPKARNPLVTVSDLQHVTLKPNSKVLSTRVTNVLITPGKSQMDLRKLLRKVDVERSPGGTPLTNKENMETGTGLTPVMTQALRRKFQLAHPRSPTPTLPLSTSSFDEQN

[4] = molecular target: T4, endogenous PRR11 (human (endogenous in ACHN and Caki-1)) (UniProt Q96HE9); experiment: co-IP; endogenous proteins in RCC cells (ACHN, Caki-1); IP with GSK3β, PRR11 or FBXW7 antibody, Protein A/G magnetic beads, Western blot; in some panels AKT-CA or AKT-DN transfected
T4 sequence: T1 sequence

[5] = molecular target: endogenous GSK3β (human (endogenous in ACHN, Caki-1 and 293T)) (UniProt P49841); experiment: as above

- binding [1]: binds
Molecule: recombinant His-FBXW7 (from UniProt Q969H0 1-707)

- binding [5]: binds
B1: endogenous PRR11 (protein, UniProt Q96HE9 1-360)
chain: T1 sequence

Second part, the molecule before the results:

Molecule: Flag-GSK3β (from UniProt P49841 1-420)
- binding [2]: binds
- binding [3]: binds

Molecule: recombinant His-GSK3β (from UniProt P49841 1-420)
- binding [1]: binds

Molecule: endogenous FBXW7 (from UniProt Q969H0 1-707)
- binding [4]: binds
